Data: PMC12664036
No constants are given. Whether binding was seen depends on the method and setting. Binding seen in cells or lysates may run through a third protein. A yes stands for co-enrichment or nearness to the bait. Other partners may have been found.

Target: Oct4 (Pou5f1), endogenous in mouse embryonic stem cells (mouse (endogenous in mouse ESCs)) (UniProt P20263)
Experiment: affinity purification with mass spectrometry; multimerised WT octamer dsDNA on FG magnetic beads (mutant DNA as control) incubated with Oct1 deficient mouse ESC lysate, 4 C, 4 h; washes 100, 200, 300 mM KCl; elution with 300 mM KCl and free DNA; LC-MS/MS, N = 3; Oct4 is held through the DNA

B1: Kdm2b, endogenous in mouse embryonic stem cells (protein, UniProt Q6P1G2 1-1309)
chain: MEAEKDSGRRLRAIDRQRYDENEDLSDVEEIVSVRGFSLEEKLRSQLYQGDFVHAMEGKDFNYEYVQREALRVPLVFRDKDGLGIKMPDPDFTVRDVKLLVGSRRLVDVMDVNTQKGTEMSMSQFVRYYETPEAQRDKLYNVISLEFSHTKLEHLVKRPTVVDLVDWVDNMWPQHLKEKQTEATNALAEMKYPKVKKYCLMSVKGCFTDFHIDFGGTSVWYHVFRGGKIFWLIPPTLHNLALYEEWVLSGKQSDIFLGDRVERCQRIELKQGYTFFIPSGWIHAVYTPVDSLVFGGNILHSFNVPMQLRIYEIEDRTRVQPKFRYPFYYEMCWYVLERYVYCVTQRSYLTQEYQRELMLIDAPRKTSVDGFSSDSWLDMEEESCEQQPQEEEEEEEDKEEEGDGADKTPKPPTDDPTSPTSTPPEDQDSTGKKPKAPAIRFLKRTLSNESEESVKSTSMPTDDPKTPTGSPATEVSTKWTHLTEFELKGLKALVEKLESLPENKKCVPEGIEDPQALLEGVKNVLKEHVDDDPTLAITGVPVVSWPKKTAKNRVVGRPKGKLGPASAVKLAANRTTAGARRRRTRCRKCEACLRTECGECHFCKDMKKFGGPGRMKQSCIMRQCIAPVLPHTAVCLVCGEAGKEDTVEEEEGKFNLMLMECSICNEIIHPGCLKIKESEGVVNDELPNCWECPKCNHAGKTGKQKRGPGFKYASNLPGSLLKEQKMNRDNKEGQEPAKRRSECEEAPRRRSDEHPKKVPADGILRRKSDDVHLRRKRKYEKPQELSGRKRASSLQTSPGSSSHLSPRPPLGSSLSPWWRSSLTYFQQQLKPGKEDKLFRKKRRSWKNAEDRLSLANKPLRRFKQEPEDDLPEAPPKTRESDQSRSSSPTAGPSTEGAEGPEEKKKVKMRRKRRLVNKELSKELSKELNHEIQKTESTLAHESQQPIKSEPESENDEPKRPLSHCERPHRFSKGLNGTPRELRHSLGPGLRSPPRVMSRPPPSASPPKCIQMERHVIRPPPISPPPDSLPLDDGAAHVMHREVWMAVFSYLSHRDLCVCMRVCRTWNRWCCDKRLWTRIDLNRCKSITPLMLSGIIRRQPVSLDLSWTNISKKQLSWLINRLPGLRDLVLSGCSWIAVSALCSSSCPLLRTLDVQWVEGLKDAQMRDLLSPPTDNRPGQMDNRSKLRNIVELRLAGLDITDVSLRLIIRHMPLLSKLQLSYCNHINDQSINLLTAVGTTTRDSLTEVNLSDCNKVTDLCLSFFKRCGNICHIDLRYCKQVTKEGCEQFIAEMSVSVQFGQVEEKLLQKLS
B1 was tested, and the binding was “binds”.
